Measured values reported in the supplement of paper PMC10849652.
The list shows a part of the results.

Chains of the proteins cited; added tags and fusions are not shown. Lines headed by an entry give the natural chain unless they say otherwise; changes in a name come on top.
UniProt Q8NFF5: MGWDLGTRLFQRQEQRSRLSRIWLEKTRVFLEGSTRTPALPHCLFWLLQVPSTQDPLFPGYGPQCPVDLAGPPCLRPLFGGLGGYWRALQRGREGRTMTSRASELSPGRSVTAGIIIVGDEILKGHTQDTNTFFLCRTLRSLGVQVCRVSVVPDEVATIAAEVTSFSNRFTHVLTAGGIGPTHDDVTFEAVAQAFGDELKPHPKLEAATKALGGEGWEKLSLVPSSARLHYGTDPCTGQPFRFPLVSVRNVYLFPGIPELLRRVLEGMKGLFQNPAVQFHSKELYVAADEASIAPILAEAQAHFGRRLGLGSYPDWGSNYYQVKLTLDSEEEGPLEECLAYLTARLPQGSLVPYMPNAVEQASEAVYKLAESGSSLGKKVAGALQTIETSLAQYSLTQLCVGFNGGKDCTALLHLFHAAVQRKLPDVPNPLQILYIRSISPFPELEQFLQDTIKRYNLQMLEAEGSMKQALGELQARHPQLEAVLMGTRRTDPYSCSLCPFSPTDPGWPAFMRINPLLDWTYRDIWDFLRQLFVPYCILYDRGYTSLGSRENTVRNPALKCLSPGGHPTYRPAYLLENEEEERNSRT
UniProt Q96IG2: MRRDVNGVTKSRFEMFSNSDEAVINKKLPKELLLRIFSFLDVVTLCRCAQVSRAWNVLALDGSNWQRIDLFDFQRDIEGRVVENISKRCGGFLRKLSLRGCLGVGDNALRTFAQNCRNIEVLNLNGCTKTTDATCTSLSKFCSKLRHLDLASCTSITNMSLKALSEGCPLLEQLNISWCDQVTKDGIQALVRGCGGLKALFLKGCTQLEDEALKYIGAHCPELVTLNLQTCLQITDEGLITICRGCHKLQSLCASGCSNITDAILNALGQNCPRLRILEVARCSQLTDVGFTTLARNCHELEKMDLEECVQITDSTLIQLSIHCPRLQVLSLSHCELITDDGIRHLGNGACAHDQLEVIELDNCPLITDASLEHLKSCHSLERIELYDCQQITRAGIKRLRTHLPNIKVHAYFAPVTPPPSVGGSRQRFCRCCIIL
UniProt Q9UBU6: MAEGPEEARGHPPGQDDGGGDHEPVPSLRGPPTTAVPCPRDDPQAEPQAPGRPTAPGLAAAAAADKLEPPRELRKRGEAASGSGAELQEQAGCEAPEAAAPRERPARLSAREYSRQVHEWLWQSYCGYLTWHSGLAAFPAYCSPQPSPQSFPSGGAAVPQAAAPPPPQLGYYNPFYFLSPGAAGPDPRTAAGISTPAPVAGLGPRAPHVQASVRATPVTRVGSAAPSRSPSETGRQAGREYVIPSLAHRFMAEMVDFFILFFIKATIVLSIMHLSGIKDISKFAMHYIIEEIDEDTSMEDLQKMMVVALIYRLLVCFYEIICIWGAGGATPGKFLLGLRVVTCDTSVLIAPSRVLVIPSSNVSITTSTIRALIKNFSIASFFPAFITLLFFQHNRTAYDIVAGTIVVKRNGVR
UniProt P26885: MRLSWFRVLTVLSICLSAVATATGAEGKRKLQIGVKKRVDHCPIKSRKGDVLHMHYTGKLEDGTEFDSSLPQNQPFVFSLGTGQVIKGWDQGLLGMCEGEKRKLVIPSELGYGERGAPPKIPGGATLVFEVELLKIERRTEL
UniProt Q9H0X4: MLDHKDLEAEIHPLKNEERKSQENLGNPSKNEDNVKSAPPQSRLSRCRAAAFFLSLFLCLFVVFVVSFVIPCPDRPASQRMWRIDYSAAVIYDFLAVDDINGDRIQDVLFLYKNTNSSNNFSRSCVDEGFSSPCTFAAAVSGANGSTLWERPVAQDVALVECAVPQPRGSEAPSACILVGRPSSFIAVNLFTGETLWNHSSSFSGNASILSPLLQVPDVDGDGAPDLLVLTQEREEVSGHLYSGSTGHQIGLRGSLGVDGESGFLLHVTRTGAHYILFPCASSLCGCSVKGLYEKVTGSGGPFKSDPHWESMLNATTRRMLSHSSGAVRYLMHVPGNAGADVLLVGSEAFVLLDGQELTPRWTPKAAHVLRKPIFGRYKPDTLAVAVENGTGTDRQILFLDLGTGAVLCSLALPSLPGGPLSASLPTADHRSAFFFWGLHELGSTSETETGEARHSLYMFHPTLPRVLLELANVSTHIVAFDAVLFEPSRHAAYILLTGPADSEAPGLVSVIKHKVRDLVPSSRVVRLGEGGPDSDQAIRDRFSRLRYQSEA
UniProt Q0JRZ9: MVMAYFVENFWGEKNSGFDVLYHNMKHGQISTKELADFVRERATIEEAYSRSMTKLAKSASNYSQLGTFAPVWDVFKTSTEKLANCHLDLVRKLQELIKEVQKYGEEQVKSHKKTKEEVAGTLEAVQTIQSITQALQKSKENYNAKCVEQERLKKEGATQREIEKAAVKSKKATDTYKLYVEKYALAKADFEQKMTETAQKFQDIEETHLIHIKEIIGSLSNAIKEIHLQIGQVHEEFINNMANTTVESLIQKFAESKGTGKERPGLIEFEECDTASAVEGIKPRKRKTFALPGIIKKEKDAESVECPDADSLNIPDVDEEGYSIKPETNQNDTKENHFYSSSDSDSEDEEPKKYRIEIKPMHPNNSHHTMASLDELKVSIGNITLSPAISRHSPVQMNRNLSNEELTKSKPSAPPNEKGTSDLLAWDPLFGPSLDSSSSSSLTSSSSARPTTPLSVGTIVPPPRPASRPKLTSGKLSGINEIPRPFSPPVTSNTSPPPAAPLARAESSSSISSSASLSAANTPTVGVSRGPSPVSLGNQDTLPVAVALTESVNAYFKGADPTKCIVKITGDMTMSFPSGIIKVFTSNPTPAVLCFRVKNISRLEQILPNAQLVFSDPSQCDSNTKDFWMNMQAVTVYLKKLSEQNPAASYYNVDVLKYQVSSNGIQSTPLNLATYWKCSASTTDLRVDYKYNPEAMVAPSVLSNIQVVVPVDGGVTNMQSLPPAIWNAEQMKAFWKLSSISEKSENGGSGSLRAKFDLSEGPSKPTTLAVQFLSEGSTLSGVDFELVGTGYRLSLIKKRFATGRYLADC
UniProt O75955: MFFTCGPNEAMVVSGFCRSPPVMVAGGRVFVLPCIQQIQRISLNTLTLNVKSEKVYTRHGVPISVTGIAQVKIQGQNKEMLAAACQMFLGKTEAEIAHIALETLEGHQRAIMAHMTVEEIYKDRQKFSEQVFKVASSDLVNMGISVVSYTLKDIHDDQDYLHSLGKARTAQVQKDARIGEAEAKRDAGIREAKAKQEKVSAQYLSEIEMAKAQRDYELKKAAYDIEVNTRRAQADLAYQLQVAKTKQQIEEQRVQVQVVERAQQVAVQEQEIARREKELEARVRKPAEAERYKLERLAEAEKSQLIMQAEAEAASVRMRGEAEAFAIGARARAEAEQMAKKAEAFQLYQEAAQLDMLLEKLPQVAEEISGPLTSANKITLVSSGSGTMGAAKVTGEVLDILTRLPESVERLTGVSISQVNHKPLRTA
UniProt Q96ME1: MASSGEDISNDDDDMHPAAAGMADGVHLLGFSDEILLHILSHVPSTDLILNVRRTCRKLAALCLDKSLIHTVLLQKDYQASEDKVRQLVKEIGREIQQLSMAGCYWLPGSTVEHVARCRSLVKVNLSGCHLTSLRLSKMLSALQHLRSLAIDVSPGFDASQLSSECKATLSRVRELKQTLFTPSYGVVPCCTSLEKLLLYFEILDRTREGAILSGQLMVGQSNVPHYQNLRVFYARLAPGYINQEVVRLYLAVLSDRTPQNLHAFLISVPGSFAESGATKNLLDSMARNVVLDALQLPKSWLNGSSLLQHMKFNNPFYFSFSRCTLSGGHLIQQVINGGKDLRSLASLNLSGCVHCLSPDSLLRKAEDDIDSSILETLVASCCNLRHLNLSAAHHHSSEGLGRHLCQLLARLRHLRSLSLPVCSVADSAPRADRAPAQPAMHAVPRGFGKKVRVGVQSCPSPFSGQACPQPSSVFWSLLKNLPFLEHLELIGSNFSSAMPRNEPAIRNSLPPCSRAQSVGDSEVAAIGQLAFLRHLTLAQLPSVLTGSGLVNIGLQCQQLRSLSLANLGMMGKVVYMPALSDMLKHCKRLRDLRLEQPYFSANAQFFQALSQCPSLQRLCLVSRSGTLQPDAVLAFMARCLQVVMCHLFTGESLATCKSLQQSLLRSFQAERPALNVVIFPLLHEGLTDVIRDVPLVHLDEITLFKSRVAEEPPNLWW
UniProt Q13451: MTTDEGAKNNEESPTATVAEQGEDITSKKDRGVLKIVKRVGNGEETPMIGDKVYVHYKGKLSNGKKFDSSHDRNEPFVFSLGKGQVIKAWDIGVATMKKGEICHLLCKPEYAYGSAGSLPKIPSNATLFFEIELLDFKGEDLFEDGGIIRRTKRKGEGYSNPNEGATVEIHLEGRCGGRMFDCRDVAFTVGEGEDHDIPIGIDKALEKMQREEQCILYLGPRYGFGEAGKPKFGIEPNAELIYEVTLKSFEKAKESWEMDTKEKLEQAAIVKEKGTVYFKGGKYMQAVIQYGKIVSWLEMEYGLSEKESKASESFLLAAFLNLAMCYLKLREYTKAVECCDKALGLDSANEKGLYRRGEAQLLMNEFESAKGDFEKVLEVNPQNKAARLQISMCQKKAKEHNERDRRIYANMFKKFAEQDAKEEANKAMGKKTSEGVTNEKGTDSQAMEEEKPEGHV
UniProt Q13045: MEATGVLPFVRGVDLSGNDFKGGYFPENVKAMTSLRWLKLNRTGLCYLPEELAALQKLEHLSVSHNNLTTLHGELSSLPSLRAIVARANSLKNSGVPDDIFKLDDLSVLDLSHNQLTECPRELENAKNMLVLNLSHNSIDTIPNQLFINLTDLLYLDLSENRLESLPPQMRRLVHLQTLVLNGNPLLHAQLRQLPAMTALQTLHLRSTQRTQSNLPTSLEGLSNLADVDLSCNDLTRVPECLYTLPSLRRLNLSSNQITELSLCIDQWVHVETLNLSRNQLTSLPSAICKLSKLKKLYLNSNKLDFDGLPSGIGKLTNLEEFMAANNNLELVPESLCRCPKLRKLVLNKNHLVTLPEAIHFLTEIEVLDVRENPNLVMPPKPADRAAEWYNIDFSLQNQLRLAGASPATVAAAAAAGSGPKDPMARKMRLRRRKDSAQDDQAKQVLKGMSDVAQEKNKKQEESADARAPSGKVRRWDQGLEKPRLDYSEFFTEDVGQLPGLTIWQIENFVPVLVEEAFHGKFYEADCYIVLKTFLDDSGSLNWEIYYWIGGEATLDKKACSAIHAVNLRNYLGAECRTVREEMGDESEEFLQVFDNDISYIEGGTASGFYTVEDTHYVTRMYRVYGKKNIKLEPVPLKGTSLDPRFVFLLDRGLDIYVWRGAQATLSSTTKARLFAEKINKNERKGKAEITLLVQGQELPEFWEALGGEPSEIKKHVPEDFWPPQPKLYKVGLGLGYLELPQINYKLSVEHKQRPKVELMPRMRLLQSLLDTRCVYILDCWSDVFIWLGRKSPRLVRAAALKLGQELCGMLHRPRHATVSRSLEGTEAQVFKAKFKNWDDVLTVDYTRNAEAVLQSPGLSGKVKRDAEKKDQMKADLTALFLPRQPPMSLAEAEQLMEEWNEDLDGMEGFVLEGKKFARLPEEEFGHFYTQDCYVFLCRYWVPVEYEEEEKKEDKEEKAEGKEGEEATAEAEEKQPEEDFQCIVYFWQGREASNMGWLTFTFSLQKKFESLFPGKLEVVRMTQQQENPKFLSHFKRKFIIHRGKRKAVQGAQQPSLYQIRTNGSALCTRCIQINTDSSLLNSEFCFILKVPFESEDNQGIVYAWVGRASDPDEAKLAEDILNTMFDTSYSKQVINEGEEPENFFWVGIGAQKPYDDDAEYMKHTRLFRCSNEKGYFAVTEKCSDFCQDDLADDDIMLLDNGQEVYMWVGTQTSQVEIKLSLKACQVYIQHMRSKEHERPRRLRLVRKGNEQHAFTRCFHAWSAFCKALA
UniProt Q92913: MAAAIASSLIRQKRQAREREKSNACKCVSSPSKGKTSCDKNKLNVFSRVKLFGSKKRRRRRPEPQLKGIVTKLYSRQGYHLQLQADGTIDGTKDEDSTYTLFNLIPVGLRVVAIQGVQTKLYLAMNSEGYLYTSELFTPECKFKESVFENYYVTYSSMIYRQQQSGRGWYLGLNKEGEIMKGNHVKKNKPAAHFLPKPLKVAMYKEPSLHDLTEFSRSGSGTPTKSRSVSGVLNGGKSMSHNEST
UniProt O95684: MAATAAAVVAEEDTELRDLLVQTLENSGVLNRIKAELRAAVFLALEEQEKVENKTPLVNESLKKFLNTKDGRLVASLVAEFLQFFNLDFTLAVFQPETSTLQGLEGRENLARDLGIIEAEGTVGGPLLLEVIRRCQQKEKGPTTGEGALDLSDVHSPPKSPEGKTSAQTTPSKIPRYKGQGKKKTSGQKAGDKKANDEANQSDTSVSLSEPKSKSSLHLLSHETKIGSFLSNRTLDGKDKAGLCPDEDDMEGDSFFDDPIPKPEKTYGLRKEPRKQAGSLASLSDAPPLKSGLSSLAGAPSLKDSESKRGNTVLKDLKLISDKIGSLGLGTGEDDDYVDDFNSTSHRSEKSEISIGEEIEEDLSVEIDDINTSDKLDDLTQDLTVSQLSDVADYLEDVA
UniProt Q9Y421: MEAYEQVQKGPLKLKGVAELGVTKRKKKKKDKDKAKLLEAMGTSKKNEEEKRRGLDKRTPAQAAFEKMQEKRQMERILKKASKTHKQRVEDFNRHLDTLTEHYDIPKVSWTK

What was measured:
Assay in all cases: log2 fold change, soluble protein after heating vs DMSO (PISA); higher = thermal stabilisation; K562 cells, 10 uM, 30 min; active = over 0.2 and 3.5 SD of the protein, either way, in both replicates (recomputed)
[1] = compound: CN1CCN(CCOc2cc(OC3CCOCC3)c3c(Nc4c(Cl)ccc5c4OCO5)ncnc3c2)CC1 [saracatinib]
In short: (§1)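 Thermal stability values are relative to control samples and come from duplicates. They are expressed as log2 fold changes. For measurement, K562 cells (2×10^6 cells/mL) received 10 μM compound for 30 min, and aliquots were heated for 3 min over 48°C-58°C, pooled, and extracted at 4°C in PBS with 0.5% NP-40. Soluble protein, the supernatant after 21,000xg for 90 min, was quantified by TMTpro 16plex LC-MS/MS with equalised channel sums.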

[2] = compound: CN1CCN(c2nc(C3=C(c4c[nH]c5ccccc45)C(=O)NC3=O)c3ccccc3n2)CC1 [sotrastaurin]
In short: as §1

[3] = compound: CN1CC[C@H](c2c(O)cc(O)c3c(=O)cc(-c4ccccc4Cl)oc23)[C@H](O)C1 [alvocidib]
In short: as §1

[4] = compound: CN1CCc2c(c3ccccc3n2Cc2ccc(C(=O)NO)cc2)C1 [Tubastatin A]
In short: as §1

[5] = compound: CNC(=O)C1=CC=CC=C1NC2=NC(=NC=C2Cl)NC3=C(C=C(C=C3)N4CCOCC4)OC
In short: as §1

[6] = compound: CNC(=O)c1ccc(Nc2ncc(C(F)(F)F)c(NCc3nccnc3N(C)S(C)(=O)=O)n2)cc1 [defactinib]
In short: as §1

[7] = compound: CNCc1ccc(-c2[nH]c3cc(F)cc4c3c2CCNC4=O)cc1 [rucaparib]
In short: as §1

[8] = compound: CNc1nc(-c2ccc3c(N)n[nH]c3c2)cc(N2C[C@@H](C(=O)NC3CCCCC3)CC[C@H]2C)n1
In short: as §1

[9] = compound: COC(=O)N[C@@H](C)CNc1nccc(-c2cn(C(C)C)nc2-c2cc(Cl)cc(NS(C)(=O)=O)c2F)n1 [encorafenib]
In short: as §1

[10] = compound: COC(=O)[C@H](CCSC)NC(=O)C1=C(C=C(C=C1)NC[C@H](CS)N)C2=CC=CC=C2
In short: as §1

Measured: log2 fold change

FLAD1 (UniProt Q8NFF5)
inactive: [1] 0.042 | [2] 0.092 | [3] -0.06 | [4] 0.036 | [5] 0.023 | [6] -0.02 | [7] -0.003 | [8] -0.026 | [9] -0.018 | [10] 0.028

FCGR2C (UniProt P31995)
inactive: [1] 0.071 | [2] 0.04 | [3] -0.02 | [4] 0.03 | [5] -0.038 | [6] -0.003 | [7] -0.011 | [8] 0.084 | [9] -0.019 | [10] -0.001

FARSA (UniProt Q9Y285)
inactive: [1] -0.007 | [2] 0.013 | [3] -0.056 | [4] -0.012 | [5] 0.045 | [6] -0.057 | [7] 0.073 | [8] 0.062 | [9] 0.036 | [10] -0.027

FBXL20 (UniProt Q96IG2)
inactive: [1] 0.077 | [2] -0.073 | [3] 0.031 | [4] 0 | [5] -0.019 | [6] 0.028 | [7] -0.009 | [8] 0.118 | [9] 0.003 | [10] 0.003

FAM8A1 (UniProt Q9UBU6)
inactive: [1] 0.034 | [2] -0.036 | [3] 0.054 | [4] 0.126 | [5] -0.047 | [6] -0.062 | [7] 0.008 | [8] -0.048 | [9] 0.005 | [10] -0.019

FKBP2 (UniProt P26885)
inactive: [1] -0.047 | [2] -0.029 | [3] -0.06 | [4] -0.033 | [5] 0.058 | [6] 0.006 | [7] 0.032 | [8] -0.009 | [9] 0.011 | [10] 0.013

FAM234A (UniProt Q9H0X4)
inactive: [1] -0.089 | [2] 0.039 | [3] -0.094 | [4] 0.04 | [5] -0.058 | [6] 0.005 | [7] 0.054 | [8] -0.039 | [9] 0.003 | [10] 0.114

FCHO2 (UniProt Q0JRZ9)
inactive: [1] 0.081 | [2] -0.045 | [3] -0.171 | [4] 0.049 | [5] 0.051 | [6] -0.05 | [7] -0.056 | [8] 0.069 | [9] -0.033 | [10] 0.04

FN1 isoform 1 (UniProt P02751)
inactive: [1] 0.028 | [2] 0.107 | [3] 0.07 | [4] -0.044 | [5] -0.071 | [6] -0.035 | [7] -0.077 | [8] -0.042 | [9] -0.018 | [10] 0.007

FKBP9 (UniProt O95302)
inactive: [1] -0.11 | [2] 0.001 | [3] 0.044 | [4] 0.01 | [5] 0.037 | [6] -0.016 | [7] 0.002 | [8] -0.046 | [9] 0.061 | [10] -0.014

FAM76B (UniProt Q5HYJ3)
inactive: [1] -0.033 | [2] -0.135 | [3] 0.087 | [4] -0.067 | [5] 0.028 | [6] -0.058 | [7] -0.136 | [8] -0.069 | [9] 0.021 | [10] 0.068

FBXW9 (UniProt Q5XUX1)
inactive: [1] -0.023 | [2] 0.028 | [3] -0.032 | [4] 0.015 | [5] 0.061 | [6] -0.073 | [7] 0.07 | [8] -0.059 | [9] -0.065 | [10] -0.006

FLOT1 (UniProt O75955)
inactive: [1] -0.262 | [2] -0.144 | [3] 0.18 | [4] 0.172 | [5] -0.046 | [6] 0.049 | [7] 0.279 | [8] 0.204 | [9] 0.168 | [10] -0.086

FBLN1 (UniProt P23142)
inactive: [1] 0.233 | [2] 0.157 | [3] 0.148 | [4] -0.147 | [5] 0.062 | [6] -0.086 | [7] -0.085 | [8] 0.118 | [9] 0.047 | [10] 0.129

FDX2 (UniProt Q6P4F2)
inactive: [1] -0.059 | [2] 0.063 | [3] -0.003 | [4] 0.002 | [5] -0.007 | [6] 0.006 | [7] 0.021 | [8] 0.058 | [9] 0.133 | [10] 0.11

FLNB isoform 8 (UniProt O75369)
inactive: [1] -0.002 | [2] -0.018 | [3] -0.029 | [4] -0.002 | [5] 0.057 | [6] -0.045 | [7] -0.01 | [8] -0.035 | [9] -0.007 | [10] -0.007

FKBP8 isoform 2 (UniProt Q14318)
inactive: [1] -0.126 | [2] -0.236 | [3] 0.105 | [4] 0.066 | [5] 0 | [6] 0.051 | [7] 0.279 | [8] 0.093 | [9] 0.188 | [10] -0.099

FBXO4 (UniProt Q9UKT5)
inactive: [1] 0.007 | [2] -0.08 | [3] -0.107 | [4] -0.037 | [5] 0.006 | [6] -0.104 | [7] 0.015 | [8] 0.045 | [9] -0.034 | [10] 0.037

FBXL18 isoform 4 (UniProt Q96ME1)
inactive: [1] 0.014 | [2] -0.039 | [3] -0.015 | [4] -0.033 | [5] -0.002 | [6] -0.077 | [7] -0.035 | [8] -0.031 | [9] -0.013 | [10] -0.028

FEM1B (UniProt Q9UK73)
inactive: [1] 0.015 | [2] 0.002 | [3] 0.014 | [4] 0.094 | [5] -0.074 | [6] 0.001 | [7] 0 | [8] -0.031 | [9] 0.082 | [10] 0.007

FAM98B (UniProt Q52LJ0)
inactive: [1] -0.062 | [2] -0.048 | [3] -0.002 | [4] 0.064 | [5] 0.035 | [6] 0.115 | [7] 0.087 | [8] 0.117 | [9] 0.048 | [10] -0.113

FAM98A (UniProt Q8NCA5)
inactive: [1] -0.058 | [2] 0.004 | [3] 0.166 | [4] 0.089 | [5] 0.047 | [6] 0.204 | [7] 0.245 | [8] 0.146 | [9] 0.125 | [10] -0.039

FKBP5 (UniProt Q13451)
inactive: [1] -0.098 | [2] -0.182 | [3] -0.093 | [4] 0.041 | [5] 0.028 | [6] -0.117 | [7] 0.169 | [8] 0.084 | [9] 0.134 | [10] -0.085

FLII (UniProt Q13045)
inactive: [1] 0 | [2] 0.009 | [3] -0.038 | [4] -0.025 | [5] 0.034 | [6] -0.028 | [7] 0.03 | [8] -0.031 | [9] 0.024 | [10] 0.018

Quoted at random: two records from the list, in no set order.
FLII (UniProt Q13045)
inactive: [1] 0 | [2] 0.009 | [3] -0.038 | [4] -0.025 | [5] 0.034 | [6] -0.028 | [7] 0.03 | [8] -0.031 | [9] 0.024 | [10] 0.018

FKBP5 (UniProt Q13451)
inactive: [1] -0.098 | [2] -0.182 | [3] -0.093 | [4] 0.041 | [5] 0.028 | [6] -0.117 | [7] 0.169 | [8] 0.084 | [9] 0.134 | [10] -0.085

Carrying on.

FGF13 isoform 3 (UniProt Q92913)
inactive: [1] 0.029 | [2] 0.043 | [3] -0.029 | [4] 0.03 | [5] -0.022 | [6] -0.129 | [7] 0.036 | [8] 0 | [9] -0.006 | [10] -0.036

FANCB (UniProt Q8NB91)
inactive: [1] 0.032 | [2] 0.015 | [3] 0.022 | [4] -0.151 | [5] -0.009 | [6] -0.008 | [7] -0.089 | [8] -0.018 | [9] 0.021 | [10] -0.017

FBXO22 (UniProt Q8NEZ5)
inactive: [1] 0.032 | [2] -0.03 | [3] -0.074 | [4] 0.001 | [5] -0.099 | [6] -0.056 | [7] 0.038 | [8] -0.019 | [9] 0.009 | [10] -0.043

FGFR1OP (UniProt O95684)
inactive: [1] 0.036 | [2] -0.024 | [3] -0.059 | [4] 0.054 | [5] 0.004 | [6] -0.032 | [7] 0.017 | [8] -0.01 | [9] -0.008 | [10] -0.004

FAM32A (UniProt Q9Y421)
inactive: [1] 0.028 | [2] -0.155 | [3] 0.246 | [4] 0.069 | [5] 0.005 | [6] 0.211 | [7] 0.124 | [8] -0.003 | [9] 0.032 | [10] -0.004

FNBP4 isoform 2 (UniProt Q8N3X1)
inactive: [1] 0.028 | [2] 0.036 | [3] 0.013 | [4] -0.02 | [5] -0.036 | [6] -0.017 | [7] -0.006 | [8] -0.054 | [9] -0.036 | [10] 0.037
